Source: PubChem BioAssay AID504749 (NCATS, 2011).

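A panel of P. falciparum strains inside erythrocytes is exposed to compounds for three days, then a DNA-binding dye reports the amount of parasite DNA. Each compound was titrated across a series from about 0.000037 to 29 µM. The number is the fitted AC50, the concentration giving a half-maximal change in signal; a lower value means higher potency, whether the curve shows a decrease or an increase. Calls follow the curve class and fit quality: every row here is inconclusive, covering signal-raising curves and weak, poorly fitted, partial or highest-dose-only inhibition curves.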

Values are in µM. Every entry below has the call inconclusive. Only part of the assay is shown, chiefly results filed as inconclusive. Potencies fitted to partial, single-point or poorly fitting curves are rough.

O=C1c2ccccc2C(=O)c2ccccc21 [CP335] gave fitted potency 15.1 µM (inhibitor, single point).
O=C1c2ccccc2C(=O)c2ccccc21 [3D7] gave fitted potency 19.95 µM (inhibitor, single point).
O=C1c2ccccc2C(=O)c2ccccc21 [Dd2] gave fitted potency 17.78 µM (inhibitor, single point).
O=C1c2ccccc2C(=O)c2ccccc21 [CP305] gave fitted potency 16.94 µM (inhibitor, single point).
O=C1c2ccccc2C(=O)c2ccccc21 [DIV14] gave fitted potency 19.01 µM (inhibitor, single point).
O=C1c2ccccc2C(=O)c2ccccc21 [DIV17] gave fitted potency 16.94 µM (inhibitor, single point).
O=C1c2ccccc2C(=O)c2ccccc21 [GB4] gave fitted potency 19.01 µM (inhibitor, single point).
O=C1c2ccccc2C(=O)c2ccccc21 [PC26] gave fitted potency 15.1 µM (inhibitor, single point).
O=C1c2ccccc2C(=O)c2ccccc21 [PAD] gave fitted potency 12.59 µM (inhibitor, single point).
O=C1c2ccccc2C(=O)c2ccccc21 [PC15] gave fitted potency 11.22 µM (inhibitor, single point).
O=C1c2ccccc2C(=O)c2ccccc21 [CP260] gave fitted potency 14.13 µM (inhibitor, single point).
O=C1c2ccccc2C(=O)c2ccccc21 [FAB9] gave fitted potency 10 µM (inhibitor, single point).
C[N+]12CCCC[C@@H]1CCC(=C(c1cccs1)c1cccs1)C2 (some centres unmarked) [C2A] gave fitted potency 12.59 µM (inhibitor, single point).
C[N+]12CCCC[C@@H]1CCC(=C(c1cccs1)c1cccs1)C2 (some centres unmarked) [CP297] gave fitted potency 19.01 µM (inhibitor, single point).
C[N+]12CCCC[C@@H]1CCC(=C(c1cccs1)c1cccs1)C2 (some centres unmarked) [CP266] gave fitted potency 0.4775 µM (inhibitor, full curve, poor fit).
C[N+]12CCCC[C@@H]1CCC(=C(c1cccs1)c1cccs1)C2 (some centres unmarked) [CP237] gave fitted potency 11.22 µM (inhibitor, single point).
C[N+]12CCCC[C@@H]1CCC(=C(c1cccs1)c1cccs1)C2 (some centres unmarked) [ATS189] gave fitted potency 10 µM (inhibitor, single point).
C[N+]12CCCC[C@@H]1CCC(=C(c1cccs1)c1cccs1)C2 (some centres unmarked) [ATS95] gave fitted potency 10 µM (inhibitor, single point).
C[N+]12CCCC[C@@H]1CCC(=C(c1cccs1)c1cccs1)C2 (some centres unmarked) [CP329] gave fitted potency 15.1 µM (inhibitor, partial curve, poor fit).
C[N+]12CCCC[C@@H]1CCC(=C(c1cccs1)c1cccs1)C2 (some centres unmarked) [HB3] gave fitted potency 7.08 µM (inhibitor, partial curve).
C[N+]12CCCC[C@@H]1CCC(=C(c1cccs1)c1cccs1)C2 (some centres unmarked) [CP250] gave fitted potency 11.22 µM (inhibitor, single point).
C[N+]12CCCC[C@@H]1CCC(=C(c1cccs1)c1cccs1)C2 (some centres unmarked) [ICS] gave fitted potency 3.162 µM (inhibitor, partial curve, poor fit).
C[N+]12CCCC[C@@H]1CCC(=C(c1cccs1)c1cccs1)C2 (some centres unmarked) [CP201] gave fitted potency 19.01 µM (inhibitor, single point).
C[N+]12CCCC[C@@H]1CCC(=C(c1cccs1)c1cccs1)C2 (some centres unmarked) [CP315] gave fitted potency 16.94 µM (inhibitor, single point).
C[N+]12CCCC[C@@H]1CCC(=C(c1cccs1)c1cccs1)C2 (some centres unmarked) [CP265] gave fitted potency 17.78 µM (inhibitor, single point).
C[N+]12CCCC[C@@H]1CCC(=C(c1cccs1)c1cccs1)C2 (some centres unmarked) [CP325] gave fitted potency 9.528 µM (inhibitor, partial curve).
C[N+]12CCCC[C@@H]1CCC(=C(c1cccs1)c1cccs1)C2 (some centres unmarked) [CP252] gave fitted potency 10 µM (inhibitor, partial curve).
C[N+]12CCCC[C@@H]1CCC(=C(c1cccs1)c1cccs1)C2 (some centres unmarked) [CP238] gave fitted potency 14.13 µM (inhibitor, single point).
C[N+]12CCCC[C@@H]1CCC(=C(c1cccs1)c1cccs1)C2 (some centres unmarked) [PC15] gave fitted potency 12.59 µM (inhibitor, partial curve).
C[N+]12CCCC[C@@H]1CCC(=C(c1cccs1)c1cccs1)C2 (some centres unmarked) [CP256] gave fitted potency 10 µM (inhibitor, single point).
C[N+]12CCCC[C@@H]1CCC(=C(c1cccs1)c1cccs1)C2 (some centres unmarked) [Dd2] gave fitted potency 11.22 µM (inhibitor, partial curve, poor fit).
C[N+]12CCCC[C@@H]1CCC(=C(c1cccs1)c1cccs1)C2 (some centres unmarked) [SC27B] gave fitted potency 10 µM (inhibitor, single point).
C[N+]12CCCC[C@@H]1CCC(=C(c1cccs1)c1cccs1)C2 (some centres unmarked) [CP194] gave fitted potency 13.46 µM (inhibitor, partial curve).

Once more, the final 3:

* C[N+]12CCCC[C@@H]1CCC(=C(c1cccs1)c1cccs1)C2 (some centres unmarked) [Dd2] | fitted potency 11.22 µM (inhibitor, partial curve, poor fit)
* C[N+]12CCCC[C@@H]1CCC(=C(c1cccs1)c1cccs1)C2 (some centres unmarked) [SC27B] | fitted potency 10 µM (inhibitor, single point)
* C[N+]12CCCC[C@@H]1CCC(=C(c1cccs1)c1cccs1)C2 (some centres unmarked) [CP194] | fitted potency 13.46 µM (inhibitor, partial curve)